The list shows a part of the results. Repeats are few or missing, and single values can be far off.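 Cells were imaged in 1,536-well plates, and nuclei stained with an antibody against cleaved PARP were counted against all DNA-stained nuclei to give the apoptosis fraction. Screening doses were chosen to leave most cells alive, and resting and induced cleaved-PARP levels differ strongly between cell lines.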
System: A2058
Assay: cleaved PARP positive nuclei fraction relative to DMSO control; melanoma cells; higher = more apoptosis
Conditions: library dose: low library concentration; 72 h

SMILES	cleaved PARP positive nuclei fraction
COc1cc([C@@H]2c3cc4c(cc3[C@@H](O[C@@H]3O[C@@H]5CO[C@@H](C)O[C@H]5[C@H](O)[C@H]3O)[C@H]3COC(=O)[C@H]23)OCO4)cc(OC)c1O [etoposide] + CO[C@@H]1[C@H](N(C)C(=O)c2ccccc2)C[C@H]2O[C@]1(C)n1c3ccccc3c3c4c(c5c6ccccc6n2c5c31)C(=O)NC4 [Midostaurin] (first compound 0.02 µM, partner dose 0.08 µM)	83.7%
COc1cc([C@@H]2c3cc4c(cc3[C@@H](O[C@@H]3O[C@@H]5CO[C@@H](C)O[C@H]5[C@H](O)[C@H]3O)[C@H]3COC(=O)[C@H]23)OCO4)cc(OC)c1O [etoposide] + O=C(Nc1cccc(Cl)c1)Nc1ncc(CCNc2ncnc3ccsc23)s1 [SNS314] (first compound 0.02 µM, partner dose 0.0008 µM)	94.3%
CCCCCCCCCCCCCCCCCCOP(=O)([O-])OC1CC[N+](C)(C)CC1 [Perifosine] + NC(=O)Nc1cc(-c2cccc(F)c2)sc1C(=O)N[C@H]1CCCNC1 [AZD7762] (first compound 0.4 µM, partner dose 0.02 µM)	110%
O=C(/C=C/c1cccnc1)NCCCCC1CCN(C(=O)c2ccccc2)CC1 + CO[C@@H]1[C@H](N(C)C(=O)c2ccccc2)C[C@H]2O[C@]1(C)n1c3ccccc3c3c4c(c5c6ccccc6n2c5c31)C(=O)NC4 [Midostaurin] (first compound 0.01 µM, partner dose 0.08 µM)	80.2%
CC[C@]1(O)C[C@H]2CN(CCc3c([nH]c4ccccc34)[C@@](C(=O)OC)(c3cc4c(cc3OC)N(C=O)[C@H]3[C@@](O)(C(=O)OC)[C@H](OC(C)=O)[C@]5(CC)C=CCN6CC[C@]43[C@@H]65)C2)C1 [vincristine] + CN(C)S(=O)(=O)c1ccc2c(c1)/C(=C/c1cc3c([nH]1)CCCC3)C(=O)N2 [SU6656] (first compound 0.0001 µM, partner dose 0.4 µM)	4170%
O=C(/C=C/c1cccnc1)NCCCCC1CCN(C(=O)c2ccccc2)CC1 + CN(C)S(=O)(=O)c1ccc2c(c1)/C(=C/c1cc3c([nH]1)CCCC3)C(=O)N2 [SU6656] (first compound 0.01 µM, partner dose 0.4 µM)	180%
Cc1ccc(Nc2nccc(N(C)c3ccc4c(C)n(C)nc4c3)n2)cc1S(N)(=O)=O [Pazopanib] + NC(=O)Nc1cc(-c2cccc(F)c2)sc1C(=O)N[C@H]1CCCNC1 [AZD7762] (first compound 0.4 µM, partner dose 0.02 µM)	91.6%
Cc1cn(-c2cc(NC(=O)c3ccc(C)c(Nc4nccc(-c5cccnc5)n4)c3)cc(C(F)(F)F)c2)cn1 [nilotinib] + NC(=O)Nc1cc(-c2cccc(F)c2)sc1C(=O)N[C@H]1CCCNC1 [AZD7762] (first compound 0.2 µM, partner dose 0.02 µM)	112%
CCCCCCCCCCCCCCCCCCOP(=O)([O-])OC1CC[N+](C)(C)CC1 [Perifosine] + C[C@@H]1CCN(C(=O)CC#N)C[C@@H]1N(C)c1ncnc2[nH]ccc12 [CP690550] (first compound 0.4 µM, partner dose 1 µM)	80.7%
N#CC[C@H](C1CCCC1)n1cc(-c2ncnc3[nH]ccc23)cn1 [ruxolitinib] + C[C@@H]1CCN(C(=O)CC#N)C[C@@H]1N(C)c1ncnc2[nH]ccc12 [CP690550] (first compound 1 µM, partner dose 1 µM)	43.4%
COc1cc([C@@H]2c3cc4c(cc3[C@@H](O[C@@H]3O[C@@H]5CO[C@@H](C)O[C@H]5[C@H](O)[C@H]3O)[C@H]3COC(=O)[C@H]23)OCO4)cc(OC)c1O [etoposide] + Cn1cncc1[C@@](N)(c1ccc(Cl)cc1)c1ccc2c(c1)c(-c1cccc(Cl)c1)cc(=O)n2C [tipifarnib] (first compound 0.02 µM, partner dose 0.01 µM)	133%
N#CC[C@H](C1CCCC1)n1cc(-c2ncnc3[nH]ccc23)cn1 [ruxolitinib] + Cc1ccc(NC(=O)c2cccc(N(C)C)c2)cc1NC(=O)c1ccc(O)cc1 [ZM336372] (first compound 1 µM, partner dose 2 µM)	126%
N#CC[C@H](C1CCCC1)n1cc(-c2ncnc3[nH]ccc23)cn1 [ruxolitinib] + COc1cc2c(Oc3ccc4[nH]c(C)cc4c3F)ncnc2cc1OCCCN1CCCC1 [cediranib] (first compound 1 µM, partner dose 0.4 µM)	118%
O=c1[nH]nc(Sc2ncc([N+](=O)[O-])s2)n1-c1ccc2c(c1)OCCO2 + O=C(O)c1ccc(-c2c[nH]c3ncc(-c4ccccc4)cc23)cc1C1CCCC1 [GSK650394] (first compound 0.2 µM, partner dose 0.16 µM)	116%
Cc1cc(Nc2cc(N3CCN(C)CC3)nc(Sc3ccc(NC(=O)C4CC4)cc3)n2)n[nH]1 [Tozasertib] + COc1cc2c(Oc3ccc4[nH]c(C)cc4c3F)ncnc2cc1OCCCN1CCCC1 [cediranib] (first compound 0.006 µM, partner dose 0.4 µM)	230%
O=c1[nH]nc(Sc2ncc([N+](=O)[O-])s2)n1-c1ccc2c(c1)OCCO2 + NCC(=O)Nc1ccc(-n2nc(C(F)(F)F)cc2-c2ccc3c(ccc4ccccc43)c2)cc1 [OSU03012] (first compound 0.2 µM, partner dose 1 µM)	84.6%
N#CC[C@H](C1CCCC1)n1cc(-c2ncnc3[nH]ccc23)cn1 [ruxolitinib] + CN(C)S(=O)(=O)c1ccc2c(c1)/C(=C/c1cc3c([nH]1)CCCC3)C(=O)N2 [SU6656] (first compound 1 µM, partner dose 0.4 µM)	135%
CC[C@]1(O)C[C@H]2CN(CCc3c([nH]c4ccccc34)[C@@](C(=O)OC)(c3cc4c(cc3OC)N(C=O)[C@H]3[C@@](O)(C(=O)OC)[C@H](OC(C)=O)[C@]5(CC)C=CCN6CC[C@]43[C@@H]65)C2)C1 [vincristine] + O=C(Nc1cccc(Cl)c1)Nc1ncc(CCNc2ncnc3ccsc23)s1 [SNS314] (first compound 0.0001 µM, partner dose 0.0008 µM)	380%

A section taken from the entries so far, for reference:
SMILES	cleaved PARP positive nuclei fraction
COc1cc([C@@H]2c3cc4c(cc3[C@@H](O[C@@H]3O[C@@H]5CO[C@@H](C)O[C@H]5[C@H](O)[C@H]3O)[C@H]3COC(=O)[C@H]23)OCO4)cc(OC)c1O [etoposide] + Cn1cncc1[C@@](N)(c1ccc(Cl)cc1)c1ccc2c(c1)c(-c1cccc(Cl)c1)cc(=O)n2C [tipifarnib] (first compound 0.02 µM, partner dose 0.01 µM)	133%
N#CC[C@H](C1CCCC1)n1cc(-c2ncnc3[nH]ccc23)cn1 [ruxolitinib] + Cc1ccc(NC(=O)c2cccc(N(C)C)c2)cc1NC(=O)c1ccc(O)cc1 [ZM336372] (first compound 1 µM, partner dose 2 µM)	126%

Reference: the supplement of paper PMC4604168 (melanoma cell lines)
